Taken from: PubChem BioAssay AID1259254 (NCATS, 2017)
Shown is one part, drawn at random, of about 59,000 reagents. About 1,550 of them (2.6%) were called active. 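G2 share is only a proxy for re-replication; each gene was hit by three separate siRNAs, and active genes were retested.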 The numbers tell different reagents against one gene apart. Further read-outs or replicates are left out here. No sequences are given here. Not stated in the record: the amount of reagent.

- Screen: 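Genome-wide screen for genes that prevent DNA re-replication in cancer cells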 (primary screen)
- Cell system: human HCT116 colorectal cancer cells
- Reagent: single siRNA against human genes
- Timing: 3 days
- Read-out: 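Imaged Hoechst DNA stain sorts each cell into a cycle phase by DNA amount; per plate, G2 fraction set to 0% for non-targeting and 100% for GMNN siRNA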
- Scale: G2 robust z-score: higher = more G2 cells, more excess DNA replication
- Rule for the call: 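Active siRNAs have a G2 robust z of 5 or more median absolute deviations over the median, which in these data means about 38% or higher of GMNN control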

ANKRD13D #1
- G2 robust z-score: -0.689
- outcome: inactive

ANKRD13D #2
- G2 robust z-score: -0.075
- outcome: inactive

ANKRD13D #3
- G2 robust z-score: 0.71
- outcome: inactive

PRKCQ-AS1 #1
- G2 robust z-score: -0.383
- outcome: inactive

PRKCQ-AS1 #2
- G2 robust z-score: -0.759
- outcome: inactive

PRKCQ-AS1 #3
- G2 robust z-score: -0.709
- outcome: inactive

LRRTM3 #1
- G2 robust z-score: 0.859
- outcome: inactive

LRRTM3 #2
- G2 robust z-score: 0.05
- outcome: inactive

LRRTM3 #3
- G2 robust z-score: 1.79
- outcome: inactive

SLC25A21 #1
- G2 robust z-score: -0.24
- outcome: inactive

SLC25A21 #2
- G2 robust z-score: 0.195
- outcome: inactive

SLC25A21 #3
- G2 robust z-score: 0.24
- outcome: inactive
